# Experimental data reported in patent US10005809B2, “Bio-active antioxidants from plant foods for nutraceutical product development” (priority 2013, dated 2018).
# Where a name gives a salt, the structure may show the parent alone. Some entries share one result that the patent states for a list of compounds. At least one compound was matched to its structure with a doubt left.
# Assay: Trolox Equivalents Antioxidant Capacity (TEAC) assay
# Type: biochemical
# Conditions: TEAC measurements
# Method: Trolox Equivalents Antioxidant Capacity (TEAC) Assay of Compounds (1-11)
# Pure compounds and standards (conc. Range 10-1000 μM) were reacted with the fixed concentration of ABTS (0.5 mM) according to the reported method. The decrease in absorbance at 734 nm was recorded 6 min after the addition of pro-formed ABTS radical solution. Standards including Trolox, quercetin, kaempferol and ascorbic acid were used for the comparison of structure-activity relationship with the isolated compounds. The calculation of TEAC values was obtained by plotting the graphs between various concentrations of compounds and percent radical scavenging activity. Slope (m) was then calculated by using the linear regression (y=mx+c) of the plotted curve. Ratio of the value of slope of Trolox with that of isolated compounds was calculated to get TEAC value as follows; TEACCompound=Slope of Trolox/Slope of compound (3)
# The TEAC assay was used to assess the power of reduction of total amount of ABTS^•+ radicals formed during the reaction by bioactive metaboilite. The ABTS is intensely colored and when it reacts with antioxidant the color disappeared. […] In present procedure, the ratio of the slope of concentrations of standard and test compound is taken, therefore TEAC is considered as relative value with no unit. Trolox used as standard antioxidant with TEAC value as 1.
row,Compound,antioxidant activity (in words)
1,"1,5-dimethyl citrate [compound 10]",potent antioxidant activity
2,"O=c1c(O[C@@H]2O[C@H](CO)[C@@H](O)[C@H](O)[C@H]2O)c(-c2ccc(O)c(O)c2)oc2cc(O)cc(O)c12 [compound 4, quercetin 3-O-β-D-glucoside]",potent antioxidant activity
3,"C[C@H]1O[C@@H](Oc2c(-c3ccc(O)c(O)c3)oc3cc(O)cc(O)c3c2=O)[C@@H](O)[C@@H](O)[C@@H]1O [compound 5, quercetin 3-O-β-D-rhamnoside]",potent antioxidant activity
4,"O=C(/C=C/c1ccc(O)cc1)O[C@H]1C(Oc2c(-c3ccc(O)c(O)c3)oc3cc(O)cc(O)c3c2=O)O[C@H](CO)[C@@H](O)[C@@H]1O (stereo partly drawn) [compound 6, quercetin 3-O-(2-p-coumaroylglucoside)]",potent antioxidant activity
5,"O=Cc1ccc(CO)o1 [compound 8, 5-hydroxymethylfurfural]",potent antioxidant activity
6,"COC(=O)CC(O)(CC(=O)OC)C(=O)OC [compound 11, trimethyl citrate]",potent antioxidant activity
